Data as given in PubChem BioAssay AID720505 (Drosophila RNAi Screening Center, 2013).
In all, the deposit lists about 20,000 reagents; below is a random part of those with a known target gene and a result. Of all reagents, about 2,100 (10%) were called active. 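Raw plate signals without normalisation; calls rest on control-based scores that were not deposited; replicate 2 separates called from uncalled poorly.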 Reagents against one gene are numbered here. Names joined by + are all predicted targets of the reagent. Not given: the amount of reagent, the time to read-out.

Assay: 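Fly regulators or components of the CRAC channel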 (primary screen)
Cell system: Drosophila S2R+ cells
Reagent: long dsRNA against Drosophila genes
Conditions: thapsigargin (2 µM) in calcium-free buffer to empty internal stores, then 2 mM calcium added back
Measured: 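Fluo-4 signal in 384-well plates read on a FLIPR after thapsigargin (2 µM, calcium-free) store depletion and 2 mM calcium add-back; unnormalised mean endpoint per well; screen run twice, selected wells retested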
Scale: calcium signal and retest calcium signal: higher = more calcium entry after store depletion
Call rule: 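About 1500 genes called as lowering calcium entry, by varying amounts, judged against per-plate control wells with STIM1 as positive and Rho1 as negative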
Calls: active = called as lowering calcium entry; inactive = not called

predicted target,dsRNA no.,"calcium signal, replicate 1","calcium signal, replicate 2","retest calcium signal, replicate 1","retest calcium signal, replicate 2",Call
CNT2,1,160,97.8,,,inactive
Hesr,1,102,121,,,inactive
Ugt303B1,1,265,143,,,inactive
Mkrn1,1,107,215,111,96.7,inactive
Ir94b,1,118,67.2,,,inactive
Obp57c,1,124,83.7,,,inactive
CG15080,1,90.8,77.9,,,inactive
IFT46,1,69.5,122,,,inactive
CG8004,1,104,99.8,,,inactive
CG44837,1,54.5,45,,,active
CG44837,2,71.1,75.1,,,inactive
Lamtor4,1,86.2,91.7,,,inactive
CG42673,1,,,,,active
CG42673,2,60.5,102,,,inactive
CG42673,3,58.3,105,,,inactive
CG42673,4,104,98.9,,,inactive
CG42673,5,94.3,81.2,,,inactive
Ntmt,1,108,219,,,inactive
CG15571,1,152,122,,,inactive
Septin5,1,157,134,,,inactive
CG13868,1,212,106,,,inactive
CG12911,1,139,101,,,inactive
CG14270,1,123,95.3,,,inactive
CG34050 (retired record),1,,,,,active
CG6497,1,96.2,121,,,inactive
CG6497,2,107,92,,,inactive
peo,1,221,163,,,inactive
Hsc70-4,1,107,141,,,inactive
l(1)G0469,1,82.9,108,,,inactive
l(1)G0469,2,78.5,110,,,inactive
CG17650,1,187,132,,,inactive
CG42586 + CG31775,1,164,124,117,112,inactive
e(y)3,1,138,167,,,inactive
CG12689,1,64.6,266,,,active
CG31926,1,180,166,,,inactive
Jhbp12,1,233,126,,,inactive
ppk23,1,71,92.2,,,active
CR6900,1,76.2,101,,,inactive
CG11854,1,171,155,,,inactive
Arts + Apl,1,113,150,,,inactive
CG10903,1,123,164,,,inactive
Rpn7,1,135,171,,,inactive
CG30278,1,120,161,,,inactive
Map205,1,80.6,127,,,inactive
Moca-cyp,1,134,116,,,inactive
CG7115,1,96.4,111,,,inactive
CG9121,1,155,108,,,inactive
CG12914,1,97.3,106,,,inactive
Pdk1,1,84.7,118,,,inactive
CtIP,1,81.3,139,,,inactive
Nopp140,1,103,126,,,inactive
Nin,1,139,166,,,inactive
CG1394,1,74.9,86.7,,,active
Rgk2,1,169,162,,,inactive
Rgk2,2,170,93.9,,,inactive
Gug,1,85.8,79.5,,,inactive
CG7054,1,225,245,,,inactive
Cyp4ad1,1,212,147,,,inactive
bdwf,1,182,310,,,inactive
CG13126,1,190,161,,,inactive
GstD8,1,211,174,,,inactive
CG15498,1,160,129,,,inactive
B9d1,1,129,110,,,inactive
CG14370,1,121,185,,,inactive
CG30001,1,124,146,,,inactive
CG2861,1,218,104,,,inactive
CG15905,1,168,167,,,inactive
Lkb1,1,94.4,93,,,inactive
CG10336,1,83.5,98.2,,,inactive
BORCS5,1,132,156,,,inactive
CG6656,1,107,183,,,inactive
Obp99a,1,74.3,115,,,active
Pfrx,1,182,116,,,inactive
Pfrx,2,110,103,,,inactive
Vps39,1,202,245,,,inactive
Rme-8,1,118,107,,,inactive
Lcp65Ae,1,78.2,48.2,,,inactive
Tsp42Ea,1,118,104,,,inactive
Tsp42Ea,2,91.4,99.4,,,inactive
Best3,1,76.6,131,,,inactive
CG6707,1,103,106,,,inactive
CG18507,1,239,113,,,inactive
CG18507,2,81.6,143,,,inactive

7 entries from above, showing only “calcium signal, replicate 1”:
CG30001	124
CG2861	218
CG15905	168
Lkb1	94.4
CG10336	83.5
BORCS5	132
CG6656	107
